Data published in patent US20180070870A1, “Autonomous Sweat Extraction and Analysis Using a Fully-Integrated Wearable Platform” (The Board of Trustees of the Leland Stanford Junior …, priority 2016, published 2018).
At least one compound was matched to its structure with a doubt left. Some results were stated once for a whole list of compounds, not compound by compound.

Test system: sweat secretion
Test: Induced sweat rate profiles stimulated by cholinergic agonist hydrogels under iontophoresis, measured with a sweat rate sensor
Type: in vivo, human
Conditions: iontophoresis 2 mA for 5 minutes; for duration of secretion (response duration): ring-shaped electrodes 4.3 cm2, measurements stopped at 60 minutes
Experimental: Bars represent values for response latency (time in seconds to onset of secretion from start of iontophoresis), response duration (total time in minutes of secretion above baseline, measurements stopped at 60 minutes), peak secretory rate in response to stimulation, time to reach peak secretory rate and time spent secreting at the peak rate. […] By modulating the formulation of the compounds that are loaded into the iontophoresis hydrogel, we can achieve different patterns of sweat secretion rate. We characterized the induced sweat rate profiles as stimulated by three different cholinergic agonist hydrogels (acetylcholine, methacholine and pilocarpine) each at two different concentrations. For this characterization step, 2 mA of current over duration of 5 minutes was applied using a pair of ring-shaped electrodes (WR Medical Electronics Co., MN, area: 4.3 cm2), with the sweat rate sensor (Q-sweat, WR Medical Electronics Co., MN) mounted on the positive electrode, sealing the stimulated area. […] This pattern is suitable for the case where periodic sweat sampling with short intervals is required. […] To retrieve the induced sweat rate information, immediately after each stimulation step, the stimulated area was wiped dry and sealed with the sweat rate sensor. After each characterization step, the same pair of hydrogels were reused for the subsequent stimulation. […] Hydrogels with cholinergic agonists at different concentrations were prepared based on known methods. In brief, a 3% agarose gel was prepared in a glass beaker by melting the agarose in water for 1 minute in a microwave. The liquefied hot gel was allowed to cool down to 47° C., a magnetic stirrer dropped into the beaker and this was placed on a hot plate stirrer set at 47° C. Then, the appropriate amount of the agonist solution was added to make the desired final concentration and allowed to mix well by stirring for a minute. The melted gel was then poured into a cylindrical mold and allowed to solidify for an hour at 4° C. […]

Compound | pattern of induced sweat secretion rate | duration of secretion (response duration)
CC(=O)OCC[N+](C)(C)C [acetylcholine] | high sweat rate response with a short lifetime | 
CC(=O)OC(C)C[N+](C)(C)C (stereo not drawn) [methacholine] |  | > 60 min
CC[C@@H]1C(=O)OC[C@@H]1Cc1cncn1C [pilocarpine] |  | > 60 min
